Measured values: US20200277376A1 (SUZHOU STAINWEI BIOTECH, published 2020)

Key:
[1] = molecular target: monkey PD-1 (monkey (Macaca fascicularis)); test: immunohistochemistry on monkey tissues (example 3)
[2] = molecular target: monkey PD-1 (monkey (Macaca fascicularis)); test: immunohistochemistry on monkey tissue sections (figure legend)
[3] = molecular target: monkey PD-1 (monkey (Macaca fascicularis)); test: immunohistochemistry on paraffin sections of monkey spleen and lympho-node

binding [1]: binds
binding [2]: binds
binding [3]: binds
B1: murine monoclonal antibody mAB21 (antibody, V domains shown)
VH: EVQLVESGGDFVKPGGSLKLSCAASGFTFSRYDMSWVRQTPDKRLEWVATISGGGRYTYYPDSVKGRFTISRDNAKNTLYLQMSSLKSEDTAIYFCTSPYGNYGMDYWGQGTSVTVSS
VL: DIVMTQSHKFMSTSVGDRVSITCKASQDAGSAVAWYQQKPGQSPKLLIYWASTRHTGVPGRFTGSGSGTDFTLTISNVQSEDLSDYFCQQYSSYPWTFGGGTKLEIK

No constants are given. Whether binding was seen depends on the method and setting. A result given as binding can be weak or reduced; the word gives no strength.
